Microarray screen: hit calls

Oligonucleotides screened, 5′ to 3′:
SAM-II: SAM-II riboswitch RNA pseudoknot, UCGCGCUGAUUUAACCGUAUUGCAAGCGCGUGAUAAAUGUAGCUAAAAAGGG. About 21,000 compounds screened, about 200 hits.
PreQ1: PreQ1 riboswitch RNA pseudoknot, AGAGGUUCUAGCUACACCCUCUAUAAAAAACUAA. From B. subtilis. About 24,000 compounds screened, about 170 hits.
TPP: TPP riboswitch RNA three-way junction, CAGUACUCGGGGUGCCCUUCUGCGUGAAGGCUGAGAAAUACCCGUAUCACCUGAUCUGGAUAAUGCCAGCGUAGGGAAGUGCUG. About 24,000 compounds screened, about 160 hits.

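The test is a small-molecule microarray: each compound is printed twice on a reactive slide, and binding shows as fluorescence of the labelled oligonucleotide after washing. For the PreQ1, TPP and SAM-II riboswitches the laboratory earlier reported (doi:10.1038/s41467-019-09493-3) 1 µM RNA, 2 h, and a rule that included a mean Z-score above 3 (spot signal-to-noise against the whole library), a score well above that on a control array, and duplicate spots agreeing (coefficient of variation under 100). The data file gives only the calls; its cut-offs may differ, and compounds hitting several targets are kept. A missing hit is not proof of no binding, and a hit is not a measured affinity.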
Key: active = hit, inactive = tested without a hit.
This is an unselected part of the compounds tested.
A target missing from an entry has no call listed here.

Cc1n[nH]c(C)c1Cc1sc2c(c1C(=O)N1C[C@H](O)CO1)c(=O)n(C)c(=O)n2CC(C)C was scored SAM-II: inactive; PreQ1: inactive; TPP: inactive.
CCNc1nc(C)c(C(=O)NCc2cc3n(n2)CCCNC3)s1 was scored SAM-II: inactive; PreQ1: inactive; TPP: inactive.
c1coc(-c2nc3sc4c(NCCN5CCOCC5)ncnc4c3c3c2CCCC3)c1 was scored SAM-II: inactive; PreQ1: inactive; TPP: inactive.
COc1ccc(Cl)cc1N1C(=O)CC(NC(C)(C)C)C1=O (stereo not shown) was scored SAM-II: inactive; PreQ1: inactive; TPP: inactive.
CCN(CC)CCNc1cc(C)nc2c3c(C)cc(C)nc3nn12 was scored PreQ1: inactive; TPP: inactive.
Cn1nc(C(F)(F)F)c(Cl)c1C(=O)NCCN1CCCCC1CO (stereo not shown) was scored SAM-II: inactive; PreQ1: inactive; TPP: inactive.
Nc1nc(SCc2ccccn2)c2ncn(C3OC(CO)C(O)C3O)c2n1 (stereo not shown) was scored SAM-II: inactive; PreQ1: inactive; TPP: inactive.
O=[N+]([O-])c1ccccc1CSc1nc(O)c2nc[nH]c2n1 was scored SAM-II: inactive; PreQ1: inactive; TPP: inactive.
CCn1cc(C(=O)O)c(=O)c2cc(F)c(N3CCNC(C)C3)c(F)c21 (stereo not shown) was scored SAM-II: inactive; PreQ1: inactive; TPP: inactive.
OCCNc1ncnc2[nH]cnc12 was scored SAM-II: inactive; PreQ1: inactive; TPP: inactive.
COC(=O)c1ccc(NC2=C(C(N)=O)S(=O)(=O)c3ccccc32)cc1 was scored PreQ1: inactive; TPP: inactive.
Cc1ccsc1[C@@H]1CCN(C(=O)CCNC(=O)c2ccccc2F)C[C@H]1O was scored SAM-II: inactive; PreQ1: inactive; TPP: inactive.
C=CCn1cc(CNC(c2ccncc2)c2ccc(C)cc2)c(C)n1 (stereo not shown) was scored SAM-II: inactive; PreQ1: inactive; TPP: inactive.
O=C(CCCN1C[C@@H]2c3ccccc3OC[C@]2(CO)C1)c1ccc(F)cc1 was scored SAM-II: inactive; PreQ1: inactive; TPP: inactive.
N[C@H](C(=O)N1CCN(c2ccccc2-c2ccccc2)C(=O)C1)C1CC1 was scored SAM-II: inactive; PreQ1: inactive; TPP: inactive.
Cn1ncc2c(=O)[nH]c(CN3CCNCC(C(=O)O)C3)nc21 (stereo not shown) was scored SAM-II: inactive; PreQ1: inactive; TPP: inactive.
Cc1nc(-c2ccccc2Cl)nc2sc(C(=O)Nc3ccccc3)c(N)c12 was scored SAM-II: inactive; PreQ1: inactive; TPP: inactive.
COc1ccccc1Nc1nc2ccccc2nc1-n1nc(C)cc1C was scored SAM-II: inactive; PreQ1: inactive; TPP: inactive.
CN(C)C(=O)N1CCc2nc(N)nc(N3CCC(C#N)CC3)c2CC1 was scored SAM-II: inactive; PreQ1: inactive; TPP: inactive.
Cc1ccsc1-c1c(-c2ccccc2)ncn1CCOCCO was scored SAM-II: inactive; PreQ1: inactive; TPP: inactive.
Cn1c(=O)c2cccc(N)c2c(=O)n1C was scored SAM-II: inactive; PreQ1: inactive; TPP: inactive.
Cc1ccc(NC(=O)C2=C(NCCO)c3ccccc3S2(=O)=O)cc1 was scored PreQ1: inactive; TPP: inactive.
OCc1nc(-c2ccc(F)cc2)n2ccccc12 was scored SAM-II: inactive; PreQ1: inactive; TPP: inactive.
Cc1cc2c(c(=O)n1Cc1ccccn1)C(c1ccccc1)C(C#N)=C(N)O2 (stereo not shown) was scored SAM-II: inactive; PreQ1: inactive; TPP: inactive.
COc1ccccc1-n1cc(-c2ccccc2)c2c(NC(C)C)ncnc21 was scored PreQ1: inactive; TPP: inactive.
COC(=O)c1ccc(Nc2nc(-c3ccc(OC)cc3)c(C)s2)cc1 was scored SAM-II: inactive; PreQ1: inactive; TPP: inactive.
CCOc1cc(C2c3c(oc4cc(C)cc(C)c4c3=O)C(=O)N2CCCO)ccc1O (stereo not shown) was scored PreQ1: inactive; TPP: inactive.
CCNc1nc(N2CCOCC2)nc(-n2nnc(C(C)=O)c2C)n1 was scored SAM-II: inactive; PreQ1: inactive; TPP: inactive.
Cc1ccc(-c2cc(C(=O)N(C)CCC(O)c3ccccc3)n[nH]2)cc1 (stereo not shown) was scored SAM-II: inactive; PreQ1: inactive; TPP: inactive.
COc1cccc(C2CCN(c3ncnc4c3CCNC4)C2)c1OC (stereo not shown) was scored SAM-II: inactive; PreQ1: inactive; TPP: inactive.
COc1ccc(CCNCc2ccc(-c3ccccc3)o2)cc1 was scored PreQ1: inactive; TPP: inactive.
CCN1CCC(N[C@@H]2CC[C@@H]2NC(=O)c2cc(=O)n(C)c(=O)n2C)CC1 was scored SAM-II: inactive; PreQ1: inactive; TPP: inactive.
N#Cc1c2c(c(NCCN3CCOCC3)n3c1nc1ccccc13)CCCC2 was scored SAM-II: inactive; PreQ1: inactive; TPP: inactive.
Cc1nc(C(=O)N2C[C@@H](CN3CCCCC3)[C@@H](CO)C2)cs1 was scored SAM-II: inactive; PreQ1: inactive; TPP: inactive.
Cc1ccc(Nc2ncnc3sc(C)cc23)c(C)c1 was scored SAM-II: inactive; PreQ1: inactive; TPP: inactive.
OC(CN1CCN(c2ccccc2)CC1)c1c[nH]c2ccc(F)cc12 (stereo not shown) was scored PreQ1: inactive; TPP: inactive.
O=C(Nc1nnc(-c2ccco2)o1)c1cc(-c2ccccc2)nc2ccccc12 was scored SAM-II: inactive; PreQ1: inactive; TPP: inactive.
Cc1cc(C)c2c(N)c(S(=O)Cc3ccccc3)sc2n1 (stereo not shown) was scored SAM-II: inactive; PreQ1: inactive; TPP: inactive.
Cc1cc(C)n(CC2(CNc3nc(-c4ccncc4)nc4c3CNC4)CC2)n1 was scored SAM-II: inactive; PreQ1: inactive; TPP: inactive.
Cc1cc(I)ccc1N was scored SAM-II: inactive; PreQ1: inactive; TPP: inactive.
Cc1cc(C)c(C(=O)N2CCC(O)C2)c(=O)[nH]1 (stereo not shown) was scored SAM-II: inactive; PreQ1: inactive; TPP: inactive.
Cc1ccc(-c2cc(C(F)F)nc(NCc3ccccc3)n2)cc1 was scored SAM-II: inactive; PreQ1: inactive; TPP: inactive.

The last 3 entries again:

SMILES,SAM-II,PreQ1,TPP
Cc1cc(I)ccc1N,inactive,inactive,inactive
Cc1cc(C)c(C(=O)N2CCC(O)C2)c(=O)[nH]1 (stereo not shown),inactive,inactive,inactive
Cc1ccc(-c2cc(C(F)F)nc(NCc3ccccc3)n2)cc1,inactive,inactive,inactive

Calls as published in the ROBIN set (doi:10.1002/anie.202211358).